PubChem BioAssay AID1508597, Cure First – 2020
This is an unselected part of the about 2,100 reagents, in one setting of the screen. 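Calls flag viability under 80% in either arm, not effects specific to rucaparib; the reference for percent is not stated.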 Entries without a mark were called inactive. Some reagents were tested in more than one well and are listed for each. Reagent sequences are not shown. Not given: the 100% reference.

Aim: 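Knock-downs altering ovarian cancer cell survival with or without PARP inhibitor rucaparib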 (primary screen)
Cell system: human ovarian carcinoma lines grown from tumours: OCI-P5x (papillary serous) and OCI-C5x (clear cell)
Reagents: siRNA pool against human genes, 1.25 pmol siRNA per well
Duration: 72 h or 96 h, depending on the cell culture
Conditions: rucaparib 20 µM (about IC30) or vehicle, present until read-out
Rucaparib or vehicle: Vehicle
Cell line: OCI-P5x (serous)
Detection: 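Luminescent ATP-based viability assay read 72 or 96 h after transfection, depending on culture, given as normalised percent viability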
Reading the numbers: viability, normalised: higher = more viable cells remaining
Rule for the call: 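Active when normalised viability falls below 80 percent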
Meaning of the calls: active = viability under 80%; inactive = viability 80% or more

no.	gene	technical replicate	viability, normalised (%)
1	CSRNP2 (cysteine and serine rich nuclear protein 2)	1	75.5 (active)
2	CSRNP2 (cysteine and serine rich nuclear protein 2)	2	77.7 (active)
3	CSRNP2 (cysteine and serine rich nuclear protein 2)	3	71.2 (active)
4	TAF5L (TATA-box binding protein associated factor 5 like)	1	73.3 (active)
5	TAF5L (TATA-box binding protein associated factor 5 like)	2	78 (active)
6	TAF5L (TATA-box binding protein associated factor 5 like)	3	80.9
7	NOTCH1 (notch receptor 1)	1	56.4 (active)
8	NOTCH1 (notch receptor 1)	2	64.3 (active)
9	NOTCH1 (notch receptor 1)	3	77.6 (active)
10	ZDHHC2 (zDHHC palmitoyltransferase 2)	1	80.9
11	ZDHHC2 (zDHHC palmitoyltransferase 2)	2	76.2 (active)
12	ZDHHC2 (zDHHC palmitoyltransferase 2)	3	138
13	PRKAR1A	1	69.4 (active)
14	PRKAR1A	2	77.6 (active)
15	PRKAR1A	3	57.7 (active)
16	KDM3A (lysine demethylase 3A)	1	42.8 (active)
17	KDM3A (lysine demethylase 3A)	2	50.2 (active)
18	KDM3A (lysine demethylase 3A)	3	50.7 (active)
19	ZCWPW1 (zinc finger CW-type and PWWP domain containing 1)	1	48.4 (active)
20	ZCWPW1 (zinc finger CW-type and PWWP domain containing 1)	2	58.9 (active)
21	ZCWPW1 (zinc finger CW-type and PWWP domain containing 1)	3	58.9 (active)
22	FOXA2 (forkhead box A2)	1	64.7 (active)
23	FOXA2 (forkhead box A2)	2	77.3 (active)
24	FOXA2 (forkhead box A2)	3	67.9 (active)
25	ATM (ATM serine/threonine kinase)	1	103
26	ATM (ATM serine/threonine kinase)	1	75 (active)
27	ATM (ATM serine/threonine kinase)	2	93.1
28	ATM (ATM serine/threonine kinase)	2	73.7 (active)
29	ATM (ATM serine/threonine kinase)	3	75 (active)
30	ATM (ATM serine/threonine kinase)	3	90.2
31	NRXN1 (neurexin 1)	1	65.1 (active)
32	NRXN1 (neurexin 1)	2	62.5 (active)
33	NRXN1 (neurexin 1)	3	92
34	GON4L (gon-4 like)	1	56.1 (active)
35	GON4L (gon-4 like)	2	60.7 (active)
36	GON4L (gon-4 like)	3	52 (active)
37	MLLT1 (MLLT1 super elongation complex subunit)	1	107
38	MLLT1 (MLLT1 super elongation complex subunit)	2	111
39	MLLT1 (MLLT1 super elongation complex subunit)	3	94.3
40	CLDN5 (claudin 5)	1	70.4 (active)
41	CLDN5 (claudin 5)	2	69 (active)
42	CLDN5 (claudin 5)	3	69.9 (active)
43	DYRK1A	1	82.9
44	DYRK1A	2	81.6
45	DYRK1A	3	45.8 (active)
46	UNG (uracil DNA glycosylase)	1	91.4
47	UNG (uracil DNA glycosylase)	2	97
48	UNG (uracil DNA glycosylase)	3	85.5
49	WDR45B (WD repeat domain 45B)	1	76.3 (active)
50	WDR45B (WD repeat domain 45B)	2	82.2
51	WDR45B (WD repeat domain 45B)	3	72.2 (active)
52	EIF2AK2 (eukaryotic translation initiation factor 2 alpha kinase 2)	1	79.3 (active)
53	EIF2AK2 (eukaryotic translation initiation factor 2 alpha kinase 2)	2	53.9 (active)
54	EIF2AK2 (eukaryotic translation initiation factor 2 alpha kinase 2)	3	85.7
55	SAP130 (Sin3A associated protein 130)	1	69.3 (active)
56	SAP130 (Sin3A associated protein 130)	2	83.9
57	SAP130 (Sin3A associated protein 130)	3	88.7

9 of these entries, set out differently:
| gene | technical replicate | viability, normalised (%) |
| --- | --- | --- |
| GON4L (gon-4 like) | 3 | 52 (active) |
| MLLT1 (MLLT1 super elongation complex subunit) | 1 | 107 |
| MLLT1 (MLLT1 super elongation complex subunit) | 2 | 111 |
| MLLT1 (MLLT1 super elongation complex subunit) | 3 | 94.3 |
| CLDN5 (claudin 5) | 1 | 70.4 (active) |
| CLDN5 (claudin 5) | 2 | 69 (active) |
| CLDN5 (claudin 5) | 3 | 69.9 (active) |
| DYRK1A | 1 | 82.9 |
| DYRK1A | 2 | 81.6 |
